Laboratory results from the M2OR odorant receptor database.
Only a part is listed here, and it is no random draw. The calls were merged from several studies; some rest on single wells. The list shows a part of the results.

Columns and labels:
Conditions in all cases: stereoisomer not certain
OR6C2 (Homo sapiens) = molecular target: T1, OR6C2 (Homo sapiens) (UniProt Q9NZP2)
T1 sequence (whole entry): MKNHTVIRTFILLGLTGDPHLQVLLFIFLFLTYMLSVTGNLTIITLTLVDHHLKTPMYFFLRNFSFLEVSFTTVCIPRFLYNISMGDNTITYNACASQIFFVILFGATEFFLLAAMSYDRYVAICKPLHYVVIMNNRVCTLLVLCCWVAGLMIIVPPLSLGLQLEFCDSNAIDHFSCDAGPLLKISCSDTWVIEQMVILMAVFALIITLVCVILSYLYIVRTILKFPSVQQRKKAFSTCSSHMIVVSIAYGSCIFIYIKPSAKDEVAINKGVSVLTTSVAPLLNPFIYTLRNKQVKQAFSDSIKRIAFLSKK
How it was run: (§1)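 Transient luciferase assays in mammalian cell lines were common, though methods varied by source. The values come from published papers and their supplementary material, with extra details from the original authors when needed. Responsive refers to a measured signal the original authors judged statistically different from baseline, and non-responsive (inactive) to the remainder.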

OR6C3 (Homo sapiens) = molecular target: T2, OR6C3 (Homo sapiens) (UniProt Q9NZP0)
T2 sequence (whole entry): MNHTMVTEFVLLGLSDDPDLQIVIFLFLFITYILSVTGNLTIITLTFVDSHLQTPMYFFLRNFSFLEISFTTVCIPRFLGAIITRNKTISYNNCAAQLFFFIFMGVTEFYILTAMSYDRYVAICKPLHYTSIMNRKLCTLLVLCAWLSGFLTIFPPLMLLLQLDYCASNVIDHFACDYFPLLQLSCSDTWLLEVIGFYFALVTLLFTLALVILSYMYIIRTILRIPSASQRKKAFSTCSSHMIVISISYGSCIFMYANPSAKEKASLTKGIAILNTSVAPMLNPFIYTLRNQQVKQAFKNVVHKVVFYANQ
How it was run: as §1

OR6C4 = test system: T3, OR6C4
T3 sequence (whole entry): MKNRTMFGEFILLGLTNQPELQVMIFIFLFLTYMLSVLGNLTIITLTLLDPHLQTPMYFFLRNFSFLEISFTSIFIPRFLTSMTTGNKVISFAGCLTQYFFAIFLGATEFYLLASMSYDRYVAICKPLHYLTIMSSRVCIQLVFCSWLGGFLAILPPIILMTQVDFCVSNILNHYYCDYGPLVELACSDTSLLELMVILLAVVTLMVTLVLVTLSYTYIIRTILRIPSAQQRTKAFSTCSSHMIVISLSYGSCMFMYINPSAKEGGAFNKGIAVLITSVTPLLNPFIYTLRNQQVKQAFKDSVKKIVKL
How it was run: as §1

OR6C6 (Homo sapiens) = molecular target: T4, OR6C6 (Homo sapiens) (UniProt A6NF89)
T4 sequence (whole entry): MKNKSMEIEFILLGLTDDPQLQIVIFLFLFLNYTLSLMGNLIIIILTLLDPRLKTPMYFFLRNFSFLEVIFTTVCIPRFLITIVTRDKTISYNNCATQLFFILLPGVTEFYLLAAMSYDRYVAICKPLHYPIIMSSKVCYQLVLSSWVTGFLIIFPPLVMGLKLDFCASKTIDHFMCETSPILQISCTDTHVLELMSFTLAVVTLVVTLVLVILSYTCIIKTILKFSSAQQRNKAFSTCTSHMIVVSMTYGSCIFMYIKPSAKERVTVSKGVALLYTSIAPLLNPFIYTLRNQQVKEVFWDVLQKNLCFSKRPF
How it was run: as §1

OR6C65 (Homo sapiens) = molecular target: T5, OR6C65 (Homo sapiens) (UniProt A6NJZ3)
T5 sequence (whole entry): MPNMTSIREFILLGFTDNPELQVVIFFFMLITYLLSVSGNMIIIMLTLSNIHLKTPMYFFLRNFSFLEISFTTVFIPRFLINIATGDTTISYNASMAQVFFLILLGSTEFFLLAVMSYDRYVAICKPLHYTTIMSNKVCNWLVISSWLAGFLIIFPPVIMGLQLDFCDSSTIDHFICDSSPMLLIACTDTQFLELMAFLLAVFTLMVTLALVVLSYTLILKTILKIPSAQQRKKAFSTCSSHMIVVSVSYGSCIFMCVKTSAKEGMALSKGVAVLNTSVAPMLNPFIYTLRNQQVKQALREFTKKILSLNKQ
How it was run: as §1

OR6C74 (Homo sapiens) = molecular target: T6, OR6C74 (Homo sapiens) (UniProt A6NCV1)
T6 sequence (whole entry): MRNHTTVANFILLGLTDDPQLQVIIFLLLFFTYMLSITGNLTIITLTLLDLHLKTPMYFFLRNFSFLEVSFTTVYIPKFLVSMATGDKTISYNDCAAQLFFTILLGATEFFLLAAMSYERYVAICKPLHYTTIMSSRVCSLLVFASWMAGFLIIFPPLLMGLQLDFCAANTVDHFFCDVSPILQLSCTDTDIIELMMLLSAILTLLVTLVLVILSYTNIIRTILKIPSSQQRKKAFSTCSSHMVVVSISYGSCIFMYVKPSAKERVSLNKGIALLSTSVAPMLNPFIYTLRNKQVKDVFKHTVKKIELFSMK
How it was run: as §1

OR6C75 (Homo sapiens) = molecular target: T7, OR6C75 (Homo sapiens) (UniProt A6NL08)
T7 sequence (whole entry): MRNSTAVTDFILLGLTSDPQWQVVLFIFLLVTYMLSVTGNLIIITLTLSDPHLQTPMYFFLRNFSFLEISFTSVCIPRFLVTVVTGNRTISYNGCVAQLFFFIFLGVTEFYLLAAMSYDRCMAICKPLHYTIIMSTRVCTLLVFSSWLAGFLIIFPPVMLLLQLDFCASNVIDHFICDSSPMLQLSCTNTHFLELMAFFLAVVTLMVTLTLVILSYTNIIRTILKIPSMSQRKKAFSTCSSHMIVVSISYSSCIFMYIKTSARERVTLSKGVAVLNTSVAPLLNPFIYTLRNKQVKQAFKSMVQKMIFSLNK
How it was run: as §1

OR6C76 (Homo sapiens) = molecular target: T8, OR6C76 (Homo sapiens) (UniProt A6NM76)
T8 sequence (whole entry): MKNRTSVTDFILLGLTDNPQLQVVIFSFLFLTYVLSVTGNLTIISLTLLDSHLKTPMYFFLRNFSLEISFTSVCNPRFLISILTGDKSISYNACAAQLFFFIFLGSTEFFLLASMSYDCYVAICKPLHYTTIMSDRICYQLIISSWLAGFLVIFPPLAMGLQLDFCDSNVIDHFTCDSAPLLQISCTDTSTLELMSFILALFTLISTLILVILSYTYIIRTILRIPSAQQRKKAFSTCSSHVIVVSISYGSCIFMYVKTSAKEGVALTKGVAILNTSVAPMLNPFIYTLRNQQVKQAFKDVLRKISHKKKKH
How it was run: as §1

OR6F1 (Homo sapiens) = molecular target: T9, OR6F1 (Homo sapiens) (UniProt Q8NGZ6)
T9 sequence (whole entry): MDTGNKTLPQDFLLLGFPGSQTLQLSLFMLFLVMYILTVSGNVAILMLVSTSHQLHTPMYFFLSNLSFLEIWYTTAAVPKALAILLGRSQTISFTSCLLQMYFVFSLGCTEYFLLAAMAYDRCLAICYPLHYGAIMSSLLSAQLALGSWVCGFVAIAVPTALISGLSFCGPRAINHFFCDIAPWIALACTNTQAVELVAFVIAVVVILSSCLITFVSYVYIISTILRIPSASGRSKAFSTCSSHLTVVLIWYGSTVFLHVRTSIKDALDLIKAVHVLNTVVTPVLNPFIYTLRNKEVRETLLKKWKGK
How it was run: as §1

OR6J1 = test system: T10, OR6J1
T10 sequence (whole entry): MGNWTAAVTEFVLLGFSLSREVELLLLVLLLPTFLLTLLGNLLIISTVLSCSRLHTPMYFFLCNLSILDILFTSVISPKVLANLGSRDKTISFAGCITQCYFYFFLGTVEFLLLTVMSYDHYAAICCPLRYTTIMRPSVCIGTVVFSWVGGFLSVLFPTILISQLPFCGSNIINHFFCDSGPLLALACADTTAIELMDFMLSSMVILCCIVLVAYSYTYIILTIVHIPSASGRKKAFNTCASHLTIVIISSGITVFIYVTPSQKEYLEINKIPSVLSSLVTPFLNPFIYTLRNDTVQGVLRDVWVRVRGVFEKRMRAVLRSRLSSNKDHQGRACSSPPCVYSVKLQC
How it was run: as §1

Measured: odorant receptor agonist call;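 also: active if original authors judged signal statistically different from baseline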

CCC(C)=O
inactive: all assays above
